Test results taken from PubChem BioAssay AID445 (National Center for Advancing Translational Sciences (NCATS), 2006).
This is one part of the list. These are further read-outs of the screen, such as a control signal, another cell line or another target. No call is given for them. Most of these compounds were active or inconclusive in the main read-out, so they are no random draw. Potencies come from curve fits of mixed quality, noted in brackets.

Assay: IkB Signaling
Settings: ABC-DLBCL IkBa-CBG/CBR dual luciferase ratio (green luciferase fused to IkBa over red control in OCI-Ly3 lymphoma cells), 4 h
Method in brief: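 Curves were fitted separately to fusion (green), unfused (red) and ratio luminescence, then classed by r2, magnitude and activity. Cells: OCI-Ly3, 4 h compound plus doxycycline at 37C; 10 uM MG-132 defined full response.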

[1] = measured here: control luc red channel unless noted

For `Cc1ccc2cc(C(c3nnnn3C3CCCC3)N(Cc3cccnc3)Cc3ccco3)c(=O)[nH]c2c1` (centres undefined), the AC50 (measured here: IkB-luc green channel) was 25.1 µM [falling, single point] and the AC50 (measured here: control luc red channel) was 25.1 µM [falling, partial curve].
With `CCOc1ccc(N2CC(c3nc4ccccc4n3CCOc3ccc(CC)cc3)CC2=O)cc1` (centres undefined) the AC50 [1] was 39.8 µM [falling, single point].
For `COc1cccc(N2CC(NC(=O)C3CC3)CC2=O)c1` (centres undefined), the AC50 [1] was 3.16 µM [rising, full curve].
For `Cc1nc2cc(-c3cccc(F)c3)nn2c(C)c1CCC(=O)NC(C)CCc1ccco1` (centres undefined), the AC50 [1] was 0.251 µM [falling, full curve].
For `Cc1ccc(CCNC(=O)c2ccc(NC(=O)N3CCSc4ccccc43)cc2)cc1`, the AC50 [1] was 39.8 µM [falling, single point].
With `CCOc1ccc2c(c1)c(=O)c(C(=O)c1ccc(CC)cc1)cn2CC(=O)Nc1ccccc1C` the AC50 [1] was 20 µM [falling, partial curve].
In the case of `CCCN(C(=O)c1cc2c(=O)oc3ccccc3c2s1)c1ccccc1C`, the AC50 [1] is reported as 15.8 µM [falling, partial curve].
With `Cc1ccc(-n2nc3c(=O)n(CCCC(=O)NCc4ccccc4F)nc(C)c3c2C)cc1` the AC50 [1] was 15.8 µM [falling, partial curve].
In the case of `O=C(Nc1c(C(=O)N2CCN(c3ccccc3F)CC2)oc2ccccc12)c1ccccc1F`, the AC50 [1] is reported as 15.8 µM [falling, partial curve].
With `O=C(CN1CCCN(Cc2ccc(F)cc2)S1(=O)=O)NCc1ccccc1Cl` the AC50 [1] was 10 µM [falling, partial curve].
With `CCC12CN3CC(CC)(CN(C1)C3c1cc(Br)ccc1OC)C2=O` (centres undefined) the AC50 [1] was 39.8 µM [falling, single point].
With `Cc1nc(-c2ccc(S(=O)(=O)N3CCN(c4ccc(F)cc4)CC3)cc2)co1` the AC50 [1] was 7.94 µM [falling, partial curve, poor fit].
In the case of `O=C(Cn1c(-c2ccc(Cl)cc2)noc1=O)N1CCN(c2ccccc2F)CC1`, the AC50 [1] is reported as 39.8 µM [falling, partial curve].
In the case of `c1ccc2c(c1)OCC(c1csc3ncnc(N4CCOCC4)c13)O2` (centres undefined), the AC50 [1] is reported as 10 µM [falling, partial curve].
With `O=C(CSc1ccc2c(c1)OCCO2)Nc1ccc(Cl)cn1` the AC50 [1] was 31.6 µM [falling, partial curve].
For `Cc1nonc1NC(=O)c1ccc(Cl)c(S(=O)(=O)N2CCCCC2)c1`, the AC50 [1] was 15.8 µM [falling, partial curve].
For `COc1cccc2c1Oc1ncccc1N(C(=O)CCC(=O)NCc1ccc(C)cc1)C2`, the AC50 [1] was 15.8 µM [falling, single point].
With `Cc1cccc(OCCCn2c(CCNC(=O)C(C)(C)C)nc3ccccc32)c1` the AC50 [1] was 39.8 µM [falling, partial curve].
In the case of `Cc1cccc(OCCSc2nc3ccc(NC(=O)COc4ccccc4)cc3s2)c1`, the AC50 [1] is reported as 3.16 µM [falling, partial curve].
For `CCOCCCNC(=O)C(=O)Nc1c2c(nn1-c1ccc(OC)cc1)CSC2`, the AC50 [1] was 3.98 µM [rising, single point].
In the case of `COc1ccc(S(=O)(=O)Nc2cc3c(cc2NCc2ccccc2)n(C)c(=O)n3C)cc1`, the AC50 [1] is reported as 25.1 µM [falling, single point].
In the case of `O=C(NC1=NC2CCCCC2N1)c1ccccc1` (centres undefined), the AC50 [1] is reported as 2.51 µM [falling, full curve, poor fit].
For `COc1ccc(C2CC(c3c(O)cc(C)oc3=O)=NCCS2)c(OC)c1` (centres undefined), the AC50 [1] was 1 µM [rising, full curve, poor fit].
With `Cc1cc(C)c(OCC(=O)N(Cc2cccc(F)c2)Cc2ccco2)c(C)c1` the AC50 [1] was 31.6 µM [falling, single point].
For `CCOC(=O)c1ccc(NS(=O)(=O)c2ccc3[nH]c4c(c3c2)CCCCC4)cc1`, the AC50 [1] was 15.8 µM [falling, partial curve].
With `Cc1cccc(NC(=O)Cn2c(=O)oc3cc(S(=O)(=O)NC4CCCC4)ccc32)c1` the AC50 [1] was 25.1 µM [falling, partial curve].
In the case of `O=C(CC1Sc2ccccc2NC1=O)Nc1cccc(C(=O)O)c1` (centres undefined), the AC50 [1] is reported as 15.8 µM [falling, partial curve].
With `Cn1nnnc1SCCCNCc1cccc(OCc2ccccc2Cl)c1` the AC50 [1] was 31.6 µM [falling, single point].
In the case of `CCc1ccc2nc(N3CCN(C(=O)C4CC4)CC3)sc2c1`, the AC50 [1] is reported as 0.00794 µM [rising, full curve, poor fit].
In the case of `CCN1C(=O)C(Cc2nc3ccccc3c(=O)n2-c2ccccc2)c2cc(Br)ccc21` (centres undefined), the AC50 [1] is reported as 31.6 µM [falling, single point].
In the case of `COc1ccc(C)cc1NC(=O)CSc1nc(=O)n(Cc2ccccn2)c2c1CCC2`, the AC50 [1] is reported as 7.94 µM [falling, partial curve].
For `CC(=O)N1CCCc2cc(S(=O)(=O)Nc3ccc(C)c(F)c3)ccc21`, the AC50 [1] was 0.126 µM [falling, full curve, poor fit].
In the case of `Cc1cccc(C)c1NC(=O)CN1C(=O)c2cccc3cccc1c23`, the AC50 [1] is reported as 0.0251 µM [rising, full curve, poor fit].
In the case of `CCOc1ccc(NC(=O)CN2C(=O)C3(SCC(=O)N3c3ccc(F)cc3)c3ccccc32)cc1` (centres undefined), the AC50 [1] is reported as 5.01 µM [falling, partial curve].
In the case of `O=C(Nc1nc(-c2ccccn2)cs1)c1ccc(Cl)s1`, the AC50 [1] is reported as 1 µM [rising, partial curve] [measured here: IkB-luc green channel].
With `COc1ccc(CNC(=O)CCc2nc(-c3ccc(C)cc3)no2)c(OC)c1` the AC50 [1] was 31.6 µM [falling, single point].
With `Cn1c(SCC(=O)N2CCc3ccccc32)nc2cccnc21` the AC50 [1] was 25.1 µM [falling, partial curve].
For `COc1cc(C(=O)Nc2nonc2-c2ccc(C)c(C)c2)cc(OC)c1OC`, the AC50 [1] was 7.94 µM [falling, partial curve].
With `Cc1ccc(NC(=O)CSc2nc(-c3ccccc3Cl)nc3cc(=O)[nH]n23)c(C)c1` the AC50 [1] was 20 µM [falling, single point].
For `COC(=O)c1c(C)nn(-c2ccc(F)cc2)c1-n1cccc1`, the AC50 [1] was 39.8 µM [falling, single point].
For `Nc1ccccc1C(=O)Nc1cccc(C(=O)O)c1`, the AC50 [1] was 2.51 µM [falling, full curve].
For `O=C(CCCn1c(=S)[nH]c2ccc(Br)cc2c1=O)N1CCN(c2ccccn2)CC1`, the AC50 [1] was 6.31 µM [falling, partial curve].
With `COc1cccc(N2CCN(C(=O)c3ccc(NC(=O)c4nsc5ccccc45)cc3)CC2)c1` the AC50 [1] was 0.0631 µM [falling, full curve].
In the case of `COc1ccc(NC(=O)c2ccco2)cc1NC(=O)COc1ccc(Cl)cc1C`, the AC50 [1] is reported as 1.58 µM [rising, partial curve].
With `Cc1ccc(C(=O)NCc2ccc(F)cc2)cc1NC(=O)c1nsc2ccccc12` the AC50 [1] was 15.8 µM [falling, partial curve, poor fit].
In the case of `CCN1C=CC(=C2C(=O)c3ccccc3C2=O)C=C1`, the AC50 [1] is reported as 25.1 µM [falling, single point].
In the case of `CCOCCCn1c(=N)c(C(=O)NCC2CCCO2)cc2c(=O)n3cccc(C)c3nc21` (centres undefined), the AC50 [1] is reported as 0.631 µM [falling, full curve, poor fit].
For `COC(=O)C1CCN(S(=O)(=O)c2cc3c4c(c2)CC(=O)N4CCC3)CC1`, the AC50 [1] was 6.31 µM [rising, single point].
With `Cc1cccc(NS(=O)(=O)c2ccc3c(c2)CCN3C(=O)C2CCC2)c1` the AC50 [1] was 25.1 µM [falling, partial curve].
In the case of `O=C(Nc1cccc(F)c1)c1ccc(-c2ccccc2)s1`, the AC50 [1] is reported as 0.0631 µM [falling, full curve].
With `O=C(c1cccs1)N1CCCc2cc(NS(=O)(=O)c3ccc(F)cc3F)ccc21` the AC50 [1] was 39.8 µM [falling, single point].
For `Cc1ccc(S(=O)(=O)c2cn(Cc3ccccc3Cl)c3ccc(F)cc3c2=O)cc1`, the AC50 [1] was 12.6 µM [falling, partial curve].
For `COc1ccc2c(c1)NC(c1cccnc1)=NC(c1ccc(F)cc1)=N2`, the AC50 [1] was 39.8 µM [falling, single point].
In the case of `CC(C)(C)N(Cc1ccccc1)C(=O)CSc1nnc(CNc2ccc(F)cc2)o1`, the AC50 [1] is reported as 25.1 µM [falling, partial curve].
In the case of `Cc1ccccc1Nc1c(-c2cccs2)nc2cccc(C)n12`, the AC50 [1] is reported as 39.8 µM [falling, single point].
For `O=C(CSc1nc2c([nH]c3ccccc32)c(=O)n1-c1ccc(Cl)cc1)NCC1CCCO1` (centres undefined), the AC50 [1] was 3.16 µM [rising, full curve].
In the case of `CCOC(=O)c1c(C)oc2nc(C)nc(NCc3ccccc3OC)c12`, the AC50 [1] is reported as 25.1 µM [falling, partial curve].
For `COc1ccccc1NC(=O)Cn1c(=O)n(CCCCCC(=O)NCc2ccccc2)c(=O)c2sccc21`, the AC50 [1] was 3.16 µM [falling, full curve].
In the case of `COc1cccc(C(=O)Nc2ccccc2-c2nnc(-c3cccc(OC)c3)o2)c1`, the AC50 [1] is reported as 12.6 µM [falling, partial curve].
With `COc1ccc2oc(=O)c(-c3nc(-c4cccs4)no3)cc2c1` the AC50 [1] was 0.0316 µM [rising, full curve].
In the case of `CC(=O)Cc1nsc(NC(=O)c2ccc(COc3ccc(C)cc3)o2)n1`, the AC50 [1] is reported as 0.2 µM [falling, full curve, poor fit].
With `O=S1(=O)C=C(Sc2nnc(-c3ccccc3)o2)c2ccccc21` the AC50 [1] was 0.631 µM [falling, full curve].
In the case of `COc1ccccc1-c1noc(-c2ccc(NC(C)C)c([N+](=O)[O-])c2)n1`, the AC50 [1] is reported as 0.0126 µM [rising, full curve, poor fit].
